From patent US20250032477A1 (VINCERX PHARMA GMBH, priority 2021, published 2025)

Experiment: general procedure: solution-phase peptide synthesis; HATU/DIEA
Settings: TFA salt

## Trifluoroacetic acid (1S,9S)-1-{[(benzyloxy)carbonyl]amino}-9-ethyl-5-fluoro-4-methyl-10,13-dioxo-2,3,9,10,13,15-hexahydro-1H,12H-benzo[de]pyrano[3′,4′:6,7]indolizino[1,2-b]quinolin-9-yl N-{2-[{2-[(2-aminoethyl)(methyl)amino]ethyl}(methyl)amino]ethyl}-N-methylglycyl-L-asparag
Late stage modification step
  crude purity (method not given): 95% purity
  step yield: 80% yield

## (7S)-7-Ethyl-8,11-dioxo-7,8,11,13-tetrahydro-2H,10H-[1,3]dioxolo[4,5-g]pyrano[3′,4′:6,7] indolizino [1,2-b]quinolin-7-yl N-methyl-N-(2,2,8,11-tetramethyl-4-oxo-3-oxa-5,8,11-triazatridecan-13-yl) glycyl-L-asparaginyl-L-prolyl-L-valinate
Coupling step
  final purity (method not given): 93% purity
  step yield: 54% yield

## Trifluoroacetic acid-(7S)-7-ethyl-8,11-dioxo-7,8,11,13-tetrahydro-2H,10H-[1,3]dioxolo[4,5-g]pyrano[3′,4′:6,7]indolizino[1,2-b]quinolin-7-yl N-{2-[{2-[(2-aminoethyl)(methyl)amino]ethyl} (methyl) amino]ethyl}-N-methylglycyl-L-asparaginyl-L-prolyl-L-valinate (1/1)
Late stage modification step
  crude purity (method not given): 100% purity
  step yield: 99% yield

## (1S,9S)-1-Amino-9-ethyl-5-fluoro-4-methyl-10,13-dioxo-2,3,9,10,13,15-hexahydro-1H,12H-benzo[de]pyrano[3′,4′:6,7]indolizino[1,2-b]quinolin-9-yl N-{2-[{2-[(2-aminoethyl)(methyl)amino]ethyl}(methyl)amino]ethyl}-N-methylglycyl-L-asparaginyl-L-prolyl-L-valinate trifluoroacetate (1:3)
Late stage modification step
  crude purity (method not given): 72% purity
  step yield: 67% yield
